Laboratory results published in publication PMC10896730.
These are yes or no findings as the source states them, for the method shown. For some assays here: In cells and extracts the contact can be indirect. Some results given as binding are weak or reduced against the parent protein; the word gives no strength.

Tests used:
[1] = target: T1, COQ2 enzyme from the Q-biosynthesis pathway (mouse (endogenous in skeletal muscle, heart, C2C12 myoblasts and fibroblasts)) (UniProt Q66JT7); assay: co-IP; UQCRC2 or COQ2 immunocaptured from isolated mitochondria of mouse Skm, heart and brain solubilized with 1% n-dodecyl-β-D-maltoside; 1–3 mg protein with 12 μg antibody on Protein G affinity gel, 4 °C overnight; western blot
T1 sequence: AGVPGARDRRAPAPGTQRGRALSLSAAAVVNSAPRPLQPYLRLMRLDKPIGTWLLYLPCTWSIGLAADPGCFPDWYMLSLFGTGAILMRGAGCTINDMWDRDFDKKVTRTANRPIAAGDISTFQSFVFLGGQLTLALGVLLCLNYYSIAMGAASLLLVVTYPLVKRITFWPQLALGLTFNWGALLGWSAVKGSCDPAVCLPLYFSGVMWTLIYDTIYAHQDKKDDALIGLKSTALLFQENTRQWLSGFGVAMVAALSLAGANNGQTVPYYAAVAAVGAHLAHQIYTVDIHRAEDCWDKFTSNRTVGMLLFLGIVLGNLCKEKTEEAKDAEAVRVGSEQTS

[2] = target: T2, QH2–Cyt c reductase core protein 2 (UQCRC2), subunit of complex III (mouse (endogenous in skeletal muscle, heart, brain, C2C12 myoblasts and fibroblasts)) (UniProt Q9DB77); assay: as above
T2 sequence: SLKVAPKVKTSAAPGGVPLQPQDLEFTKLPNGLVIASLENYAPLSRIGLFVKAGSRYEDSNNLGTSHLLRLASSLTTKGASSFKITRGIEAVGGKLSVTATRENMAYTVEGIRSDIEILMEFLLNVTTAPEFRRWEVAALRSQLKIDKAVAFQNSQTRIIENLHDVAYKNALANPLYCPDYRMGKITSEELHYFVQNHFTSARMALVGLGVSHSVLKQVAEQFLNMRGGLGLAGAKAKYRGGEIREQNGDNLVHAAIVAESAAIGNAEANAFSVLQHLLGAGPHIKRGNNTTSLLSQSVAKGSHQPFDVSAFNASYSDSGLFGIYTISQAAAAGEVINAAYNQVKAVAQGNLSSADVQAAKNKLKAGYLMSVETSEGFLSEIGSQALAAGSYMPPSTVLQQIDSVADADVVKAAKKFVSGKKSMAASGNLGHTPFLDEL

[3] = target: T1, COQ2 enzyme from the Q-biosynthesis pathway (mouse (endogenous in skeletal muscle, heart, C2C12 myoblasts and fibroblasts)); assay: native gel or EMSA; BN-PAGE of mitochondrial membrane proteins from wt mouse hearts and wt mouse fibroblasts cut into 26 bands, proteomics of each band (BN-DiS); codetection in band 13
[4] = target: T2, QH2–Cyt c reductase core protein 2 (UQCRC2), subunit of complex III (mouse (endogenous in skeletal muscle, heart, brain, C2C12 myoblasts and fibroblasts)); assay: as above
[5] = target: T1, COQ2 enzyme from the Q-biosynthesis pathway (mouse (endogenous in skeletal muscle, heart, C2C12 myoblasts and fibroblasts)); assay: proximity ligation; Duolink In Situ PLA in C2C12 myoblasts (CRL and ETFDH-ko) grown on coverslips
[6] = target: T2, QH2–Cyt c reductase core protein 2 (UQCRC2), subunit of complex III (mouse (endogenous in skeletal muscle, heart, brain, C2C12 myoblasts and fibroblasts)); assay: as above
[7] = target: T1, COQ2 enzyme from the Q-biosynthesis pathway (mouse (endogenous in skeletal muscle, heart, C2C12 myoblasts and fibroblasts)); assay: native gel or EMSA; 1D BN-PAGE (digitonin-solubilized Skm mitochondrial membranes of wt mice, 3–12% Bis–Tris) followed by 2D SDS–PAGE and immunoblot; comigration
[8] = target: T2, QH2–Cyt c reductase core protein 2 (UQCRC2), subunit of complex III (mouse (endogenous in skeletal muscle, heart, brain, C2C12 myoblasts and fibroblasts)); assay: as above

Measured: binding

B1: electron-transfer flavoprotein dehydrogenase (ETFDH) (protein, UniProt Q921G7 33-616)
chain: SSTSAVPQITTHYTVHPREKDKRWEGVNMERFAEEADVVIVGAGPAGLSAAIRLKQLAAEQGKDIRVCLVEKAAQIGAHTLSGACLDPAAFKELFPDWKEKGAPLNTPVTEDRFAILTEKHRIPVPILPGLPMNNHGNYIVRLGHLVSWMGEQAEALGVEVYPGYAAAEVLYHEDGSVKGIATNDVGIQKDGAPKTTFERGLELHAKVTVFAEGCHGHLAKQLYKKFDLRASCDAQTYGIGLKELWIIDEKKWKPGRVDHTVGWPLDRHTYGGSFLYHLNEGEPLVAVGFVVGLDYQNPYLSPFREFQRWKHHPSIQPTLEGGKRIAYGARALNEGGLQSIPKLTFPGGLLIGCSPGFMNVPKIKGTHTAMKSGSLAAESIFKQLTSENLQSKTTGLHVTEYEDNLKQSWVWKELHAVRNIRPSCHGILGVYGGMIYTGIFYWILRGMEPWTLKHKGSDSDQLKPAKDCTPIEYPKPDGQISFDLLSSVALSGTNHEHDQPAHLTLKDDSIPVNRNLSIYDGPEQRFCPAGVYEFVPLEQGDGFRLQINAQNCVHCKTCDIKDPSQNINWVVPEGGGGPAYNGM
binds: all assays above
